Results deposited as PubChem BioAssay AID504791 (Drosophila RNAi Screening Center, 2011).
The deposit covers about 23,000 reagents; below is an unselected part of those with a known target gene and a result. Of all reagents, 199 (0.86%) are marked active. 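Plate-scaled ratios behind the calls are not deposited; printed light signals are raw; many rows marked increased or decreased are still called inactive.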 Unmarked entries are inactive. Names joined by + are all predicted targets of the reagent. Not given: the direction of the score.

Purpose: 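Genes whose knock-down strengthens or weakens small-RNA reporter silencing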 (primary screen)
Cells: Drosophila S2-derived reporter cells
Reagent: long dsRNA against Drosophila genes, about 150-250 ng dsRNA per well (siRNA assay); about 80-120 ng (miRNA assay)
Time to read-out: about 5 days (siRNA assay); about 4 days (miRNA assay)
Challenge: copper sulfate induction of reporters: 25 µM (siRNA assay); 200 mM stated (miRNA assay), 1-2 days before reading
Detection: 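Per-well ratio of Renilla over firefly light, expressed relative to that plate's average ratio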
Rule for the call: 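a well was a first-pass pick when its plate-scaled ratio rose above 1.5 (siRNA assay) or 1.6 (miRNA assay), or dropped below 0.6; a gene counted only if two separate dsRNAs agreed on retest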

| target gene | DRSC id | stable siRNA reporter change | miRNA reporter change | stable assay Renilla, run 1 (luminescence) | stable assay firefly, run 1 (luminescence) |
| --- | --- | --- | --- | --- | --- |
| CG13160 (GeneID 36343) | DRSC06284 | – | – | 8415 | 4.47e5 |
| vtd (GeneID 3354896) | DRSC20839 | – | – | 4851 | 3.61e5 |
| CG10862 (GeneID 38437) | DRSC08170 | – | – | 7062 | 3.13e5 |
| Mic26-27 (GeneID 41959) | DRSC15913 | – | – | 8850 | 3.77e5 |
| wash (GeneID 36311) | DRSC06302 | – | – | 6235 | 3.31e5 |
| Hsp70Bc (GeneID 48583) | DRSC16053 | – | reporter ratio raised past the hit cutoff | 6322 | 4.10e5 |
| CG4572 (GeneID 42360) | DRSC15603 | – | – | 9905 | 3.42e5 |
| CG11986 (GeneID 41083) | DRSC14461 | – | – | 8829 | 4.62e5 |
| CG14722 (GeneID 41419) | DRSC14944 | – | – | 8167 | 3.43e5 |
| Jon65Ai (GeneID 38685) | DRSC09731 | – | – | 6399 | 4.13e5 |
| cos (GeneID 35653) | DRSC07598 | – | – | 22113 | 1.28e6 |
| CG13297 (GeneID 38711) | DRSC09971 | – | – | 7454 | 6.31e5 |
| CG14391 (GeneID 41567) | DRSC14850 | – | – | 7840 | 4.74e5 |
| Dark (GeneID 36914) | DRSC05922 | – | – | 10625 | 3.96e5 |
| CG6763 (GeneID 42754) | DRSC16110 | – | – | 6898 | 3.11e5 |
| Jheh1 (GeneID 251984) | DRSC06529 | – | – | 9974 | 3.84e5 |
| Sec24CD (GeneID 33409) | DRSC00300 | – | reporter ratio lowered past the hit cutoff | 9966 | 6.42e5 |
| 5PtaseI (GeneID 326119) | DRSC16269 | – | – | 9785 | 4.15e5 |
| 5PtaseI (GeneID 326119) | DRSC22090 | – | – | 10189 | 6.54e5 |
| CG8925 (GeneID 41963) | DRSC16455 | – | – | 7252 | 3.95e5 |
| CG8925 (GeneID 41963) | DRSC16456 | – | – | 6710 | 3.28e5 |
| CG8925 (GeneID 41963) | DRSC16457 | – | – | 7616 | 3.52e5 |
| CG15482 (GeneID 34717) | DRSC02492 | – | – | 7492 | 3.96e5 |
| CG5157 (GeneID 39771) | DRSC10488 | – | – | 8206 | 3.87e5 |
| pon (GeneID 31394) | DRSC18823 | – | – | 6268 | 3.20e5 |
| CG2712 (GeneID 31267) | DRSC18589 | – | – | 8611 | 5.08e5 |
| Zif (GeneID 40795) | DRSC12514 | – | – | 5864 | 3.50e5 |
| Hibch (GeneID 41869) | DRSC15705 | – | – | 7028 | 4.56e5 |
| Nepl13 (GeneID 42699) | DRSC15632 | – | – | 6838 | 3.17e5 |
| Elp6 (GeneID 41641) | DRSC16571 | – | – | 7851 | 5.04e5 |
| CG4835 (GeneID 38619) | DRSC10452 | reporter ratio raised past the hit cutoff | – | 5690 | 1.70e5 |
| Sap47 (GeneID 41938) | DRSC16850 | – | – | 11384 | 6.21e5 |
| CG31441 (GeneID 326139) | DRSC15723 | – | – | 6706 | 4.13e5 |
| CG30324 (GeneID 246540) | DRSC22655 | – | – | 4467 | 3.90e5 |
| CG15715 (GeneID 39726) | DRSC10216 | – | – | 7711 | 3.31e5 |
| GC2 (GeneID 41449) | DRSC14476 | – | – | 7934 | 4.07e5 |
| CG4198 (GeneID 31445) | DRSC18354 | – | – | 6514 | 5.07e5 |
| HP1D3csd (GeneID 32906) | DRSC19548 | – | – | 5998 | 3.72e5 |
| alpha-Est6 (GeneID 40902) | DRSC12618 | – | – | 10136 | 5.50e5 |
| ena (GeneID 37201) | DRSC05779 | – | – | 5456 | 3.68e5 |
| ena (GeneID 37201) | DRSC07610 | – | – | 9929 | 4.20e5 |
| HisCl1 (GeneID 41426) | DRSC14945 | – | – | 8032 | 3.64e5 |
| dcma (GeneID 5740672) | DRSC00246 | – | – | 5359 | 3.66e5 |
| dcma (GeneID 5740672) | DRSC00338 | – | – | 8569 | 5.14e5 |
| CG13510 (GeneID 37596) | DRSC04152 | – | – | 6507 | 4.27e5 |
| Noc2 (GeneID 35386) | DRSC03165 | – | – | 6324 | 1.25e6 |
| Phs (GeneID 39697) | DRSC10827 | – | – | 8268 | 3.48e5 |
| Doc2 (GeneID 39038) | DRSC22716 | – | – | 5315 | 4.96e5 |
| CG5645 (GeneID 39382) | DRSC10532 | – | – | 8919 | 6.26e5 |
| CG2065 (GeneID 35707) | DRSC06813 | – | – | 5672 | 3.31e5 |
| CG2065 (GeneID 35707) | DRSC21328 | – | – | 8651 | 6.74e5 |
| CG11095 (GeneID 32348) | DRSC19375 | – | – | 7747 | 5.20e5 |
| Atx-1 (GeneID 31624) | DRSC18365 | – | – | 5844 | 3.59e5 |
| CG33491 (retired record) + CG33496 (retired record) + CG33487 (retired record) + 1 more | DRSC22969 | – | – | 4032 | 3.92e5 |
| CG13066 (GeneID 50270) | DRSC09949 | – | – | 7320 | 3.54e5 |
| Tango11 (GeneID 246596) | DRSC03890 | – | – | 5630 | 5.67e5 |
| Tango11 (GeneID 246596) | DRSC03892 | – | – | 6223 | 5.49e5 |

A few values from above.
CG13510 (GeneID 37596) [DRSC04152], stable assay Renilla, run 1 (luminescence): 6507
Tango11 (GeneID 246596) [DRSC03890], stable assay firefly, run 1 (luminescence) → 5.67e5
Entry of CG33491 (retired record) + CG33496 (retired record) + CG33487 (retired record) + 1 more [DRSC22969] in “stable assay Renilla, run 1 (luminescence)”: 4032
CG8925 (GeneID 41963) [DRSC16455], stable assay firefly, run 1 (luminescence): 3.95e5
